The supplement of paper PMC7666118
Some of the results follow.

Protein sequences, listed by entry. Tags and fused reporters are not part of them. Lines headed by an entry give the natural chain unless they say otherwise; changes in a name come on top.
UniProt Q9Y3D6: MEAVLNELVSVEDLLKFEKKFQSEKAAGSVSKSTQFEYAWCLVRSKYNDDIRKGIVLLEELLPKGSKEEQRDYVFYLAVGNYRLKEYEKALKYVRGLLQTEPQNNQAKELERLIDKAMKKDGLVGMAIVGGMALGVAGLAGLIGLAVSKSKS
UniProt Q9NQT4, whole entry: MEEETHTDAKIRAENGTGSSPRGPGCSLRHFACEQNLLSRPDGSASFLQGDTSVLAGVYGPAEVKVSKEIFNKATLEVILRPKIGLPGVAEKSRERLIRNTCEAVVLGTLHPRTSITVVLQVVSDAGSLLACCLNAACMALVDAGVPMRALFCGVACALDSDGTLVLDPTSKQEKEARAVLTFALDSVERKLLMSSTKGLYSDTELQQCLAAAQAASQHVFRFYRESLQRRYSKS
UniProt O00471: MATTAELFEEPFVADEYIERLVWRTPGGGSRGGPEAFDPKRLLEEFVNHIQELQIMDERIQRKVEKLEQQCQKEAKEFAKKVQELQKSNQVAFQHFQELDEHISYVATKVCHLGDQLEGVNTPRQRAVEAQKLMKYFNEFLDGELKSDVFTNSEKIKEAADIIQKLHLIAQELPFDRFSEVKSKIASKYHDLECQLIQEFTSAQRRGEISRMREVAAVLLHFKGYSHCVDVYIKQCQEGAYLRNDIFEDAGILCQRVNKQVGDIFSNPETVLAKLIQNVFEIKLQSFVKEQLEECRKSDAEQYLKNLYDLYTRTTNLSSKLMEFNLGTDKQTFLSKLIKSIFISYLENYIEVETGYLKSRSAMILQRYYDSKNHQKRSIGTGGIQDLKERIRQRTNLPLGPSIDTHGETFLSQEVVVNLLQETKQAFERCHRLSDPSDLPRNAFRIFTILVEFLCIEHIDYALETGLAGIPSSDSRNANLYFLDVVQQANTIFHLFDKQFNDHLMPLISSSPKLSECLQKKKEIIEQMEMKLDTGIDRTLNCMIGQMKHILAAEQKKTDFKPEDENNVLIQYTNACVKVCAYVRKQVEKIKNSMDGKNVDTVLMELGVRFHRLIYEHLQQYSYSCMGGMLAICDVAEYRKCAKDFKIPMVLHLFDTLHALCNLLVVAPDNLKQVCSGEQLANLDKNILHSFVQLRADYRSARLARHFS
UniProt Q9NRY5: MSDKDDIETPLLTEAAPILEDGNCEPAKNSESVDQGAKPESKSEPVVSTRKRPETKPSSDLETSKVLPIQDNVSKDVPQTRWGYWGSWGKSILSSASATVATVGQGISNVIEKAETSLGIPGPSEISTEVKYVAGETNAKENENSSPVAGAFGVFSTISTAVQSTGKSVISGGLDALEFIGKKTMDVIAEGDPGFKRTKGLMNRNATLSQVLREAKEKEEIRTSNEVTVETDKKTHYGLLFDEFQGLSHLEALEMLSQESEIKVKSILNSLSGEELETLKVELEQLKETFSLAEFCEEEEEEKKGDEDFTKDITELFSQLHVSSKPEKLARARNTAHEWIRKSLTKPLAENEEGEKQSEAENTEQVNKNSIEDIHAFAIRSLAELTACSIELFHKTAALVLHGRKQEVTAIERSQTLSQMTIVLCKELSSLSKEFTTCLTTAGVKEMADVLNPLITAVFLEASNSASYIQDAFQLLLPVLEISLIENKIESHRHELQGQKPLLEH
UniProt Q14254: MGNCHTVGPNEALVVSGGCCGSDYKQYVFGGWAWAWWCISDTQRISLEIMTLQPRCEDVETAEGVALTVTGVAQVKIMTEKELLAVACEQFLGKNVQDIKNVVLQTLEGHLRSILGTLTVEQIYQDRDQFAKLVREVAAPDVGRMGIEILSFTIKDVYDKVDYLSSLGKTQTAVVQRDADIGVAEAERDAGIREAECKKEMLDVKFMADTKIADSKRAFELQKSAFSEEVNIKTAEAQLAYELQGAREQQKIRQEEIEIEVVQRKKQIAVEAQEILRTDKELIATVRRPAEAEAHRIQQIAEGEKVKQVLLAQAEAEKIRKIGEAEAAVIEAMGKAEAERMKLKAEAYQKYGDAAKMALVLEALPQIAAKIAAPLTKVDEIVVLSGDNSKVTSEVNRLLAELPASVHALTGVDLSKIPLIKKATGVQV
UniProt Q52LJ0: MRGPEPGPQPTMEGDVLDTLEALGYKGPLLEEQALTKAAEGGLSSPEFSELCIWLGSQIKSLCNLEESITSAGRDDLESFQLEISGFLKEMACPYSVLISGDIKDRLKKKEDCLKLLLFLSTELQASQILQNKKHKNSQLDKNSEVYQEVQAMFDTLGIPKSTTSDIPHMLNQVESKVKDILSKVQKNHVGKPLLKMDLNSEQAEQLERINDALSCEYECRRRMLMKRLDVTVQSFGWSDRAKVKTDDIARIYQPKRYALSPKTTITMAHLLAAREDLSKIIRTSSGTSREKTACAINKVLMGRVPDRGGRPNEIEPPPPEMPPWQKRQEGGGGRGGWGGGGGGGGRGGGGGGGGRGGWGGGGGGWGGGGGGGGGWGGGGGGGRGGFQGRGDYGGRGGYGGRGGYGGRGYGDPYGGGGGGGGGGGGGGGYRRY
UniProt Q9Y680: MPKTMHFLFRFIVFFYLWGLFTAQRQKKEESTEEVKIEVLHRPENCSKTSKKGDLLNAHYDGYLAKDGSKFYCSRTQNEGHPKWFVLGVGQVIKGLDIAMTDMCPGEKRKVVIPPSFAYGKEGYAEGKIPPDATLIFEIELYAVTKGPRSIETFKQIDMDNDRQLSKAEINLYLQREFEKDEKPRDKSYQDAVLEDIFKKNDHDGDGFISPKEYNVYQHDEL
UniProt Q96FL9: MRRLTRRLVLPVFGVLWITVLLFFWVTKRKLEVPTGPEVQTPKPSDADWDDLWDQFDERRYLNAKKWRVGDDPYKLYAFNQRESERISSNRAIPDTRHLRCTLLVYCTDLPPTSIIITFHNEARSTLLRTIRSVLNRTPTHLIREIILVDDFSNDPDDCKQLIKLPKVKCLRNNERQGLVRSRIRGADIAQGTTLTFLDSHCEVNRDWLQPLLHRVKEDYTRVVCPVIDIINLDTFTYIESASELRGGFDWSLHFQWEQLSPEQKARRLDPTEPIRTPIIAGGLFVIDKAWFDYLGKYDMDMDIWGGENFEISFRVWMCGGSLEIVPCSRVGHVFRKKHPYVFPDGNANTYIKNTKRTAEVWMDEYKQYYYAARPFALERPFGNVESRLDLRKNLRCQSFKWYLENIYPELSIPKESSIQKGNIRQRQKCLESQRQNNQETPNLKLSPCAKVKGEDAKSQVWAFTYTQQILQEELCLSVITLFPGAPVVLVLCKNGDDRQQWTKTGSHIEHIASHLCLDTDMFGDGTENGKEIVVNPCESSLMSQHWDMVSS
UniProt Q5VWP2: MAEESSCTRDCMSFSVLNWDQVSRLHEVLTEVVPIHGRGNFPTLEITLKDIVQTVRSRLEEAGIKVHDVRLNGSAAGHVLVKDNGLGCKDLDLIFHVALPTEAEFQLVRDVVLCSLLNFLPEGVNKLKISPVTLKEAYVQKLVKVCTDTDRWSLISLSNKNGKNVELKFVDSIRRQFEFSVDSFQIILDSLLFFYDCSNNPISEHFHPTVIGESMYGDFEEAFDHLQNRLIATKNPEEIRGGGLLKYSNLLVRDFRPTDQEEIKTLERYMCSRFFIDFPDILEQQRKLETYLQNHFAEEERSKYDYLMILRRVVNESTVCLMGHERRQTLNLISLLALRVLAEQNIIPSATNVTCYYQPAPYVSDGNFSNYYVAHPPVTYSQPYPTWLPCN
UniProt Q16134: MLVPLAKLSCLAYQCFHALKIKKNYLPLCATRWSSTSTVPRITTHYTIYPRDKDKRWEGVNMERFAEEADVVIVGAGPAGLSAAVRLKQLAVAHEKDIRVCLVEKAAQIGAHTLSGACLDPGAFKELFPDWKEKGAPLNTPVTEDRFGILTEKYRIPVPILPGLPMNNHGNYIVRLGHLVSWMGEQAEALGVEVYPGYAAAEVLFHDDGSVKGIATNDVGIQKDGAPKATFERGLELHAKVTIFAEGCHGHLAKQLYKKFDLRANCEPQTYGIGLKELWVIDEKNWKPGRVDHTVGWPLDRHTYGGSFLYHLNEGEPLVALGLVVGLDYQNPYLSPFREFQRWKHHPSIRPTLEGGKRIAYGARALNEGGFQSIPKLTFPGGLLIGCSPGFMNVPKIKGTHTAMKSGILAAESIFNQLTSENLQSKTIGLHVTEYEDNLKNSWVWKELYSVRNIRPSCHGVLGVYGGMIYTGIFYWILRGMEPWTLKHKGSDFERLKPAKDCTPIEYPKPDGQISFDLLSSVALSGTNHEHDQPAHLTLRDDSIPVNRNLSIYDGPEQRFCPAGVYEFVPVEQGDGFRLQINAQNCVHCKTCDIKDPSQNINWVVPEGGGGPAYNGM
UniProt Q96KP1: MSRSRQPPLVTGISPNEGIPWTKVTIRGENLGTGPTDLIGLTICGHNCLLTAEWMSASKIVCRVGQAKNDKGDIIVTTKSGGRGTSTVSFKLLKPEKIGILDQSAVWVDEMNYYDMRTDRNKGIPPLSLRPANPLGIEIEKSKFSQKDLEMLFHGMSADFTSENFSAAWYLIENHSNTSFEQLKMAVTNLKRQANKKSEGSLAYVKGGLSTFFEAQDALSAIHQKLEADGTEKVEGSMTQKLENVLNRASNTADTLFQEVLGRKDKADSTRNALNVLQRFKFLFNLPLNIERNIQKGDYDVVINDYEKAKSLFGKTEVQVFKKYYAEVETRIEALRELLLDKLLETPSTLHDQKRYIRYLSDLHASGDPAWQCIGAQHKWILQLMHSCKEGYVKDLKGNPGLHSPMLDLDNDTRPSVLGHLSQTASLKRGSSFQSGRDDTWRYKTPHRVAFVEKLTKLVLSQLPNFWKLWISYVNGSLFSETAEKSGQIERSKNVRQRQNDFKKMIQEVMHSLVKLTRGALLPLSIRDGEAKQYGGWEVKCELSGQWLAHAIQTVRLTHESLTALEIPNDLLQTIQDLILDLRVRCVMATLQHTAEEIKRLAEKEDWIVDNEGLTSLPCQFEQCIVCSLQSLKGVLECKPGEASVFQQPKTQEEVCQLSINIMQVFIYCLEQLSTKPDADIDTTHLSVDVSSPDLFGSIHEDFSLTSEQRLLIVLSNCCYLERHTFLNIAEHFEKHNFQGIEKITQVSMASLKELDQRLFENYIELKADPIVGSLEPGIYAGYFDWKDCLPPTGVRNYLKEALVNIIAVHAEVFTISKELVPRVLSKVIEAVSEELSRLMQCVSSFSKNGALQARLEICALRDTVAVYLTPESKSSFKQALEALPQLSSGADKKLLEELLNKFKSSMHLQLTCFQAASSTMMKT
UniProt Q9H334: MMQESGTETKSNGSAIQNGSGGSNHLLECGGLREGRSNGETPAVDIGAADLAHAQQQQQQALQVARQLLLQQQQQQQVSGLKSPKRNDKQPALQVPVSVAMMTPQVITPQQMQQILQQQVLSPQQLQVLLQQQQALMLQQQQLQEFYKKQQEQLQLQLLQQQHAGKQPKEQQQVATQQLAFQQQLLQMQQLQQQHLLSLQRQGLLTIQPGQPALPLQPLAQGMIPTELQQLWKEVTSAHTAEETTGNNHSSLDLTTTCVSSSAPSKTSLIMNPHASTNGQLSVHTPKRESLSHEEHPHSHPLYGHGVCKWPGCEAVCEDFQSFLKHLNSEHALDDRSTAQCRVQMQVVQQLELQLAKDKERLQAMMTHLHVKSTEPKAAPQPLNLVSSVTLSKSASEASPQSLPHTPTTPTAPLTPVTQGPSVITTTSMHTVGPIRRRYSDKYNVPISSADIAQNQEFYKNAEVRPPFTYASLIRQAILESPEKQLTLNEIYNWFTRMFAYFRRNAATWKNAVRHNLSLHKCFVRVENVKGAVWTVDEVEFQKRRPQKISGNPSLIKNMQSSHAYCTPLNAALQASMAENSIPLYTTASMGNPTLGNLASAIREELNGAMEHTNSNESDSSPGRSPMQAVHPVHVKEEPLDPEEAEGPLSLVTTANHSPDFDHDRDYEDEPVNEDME
UniProt Q8IYI6: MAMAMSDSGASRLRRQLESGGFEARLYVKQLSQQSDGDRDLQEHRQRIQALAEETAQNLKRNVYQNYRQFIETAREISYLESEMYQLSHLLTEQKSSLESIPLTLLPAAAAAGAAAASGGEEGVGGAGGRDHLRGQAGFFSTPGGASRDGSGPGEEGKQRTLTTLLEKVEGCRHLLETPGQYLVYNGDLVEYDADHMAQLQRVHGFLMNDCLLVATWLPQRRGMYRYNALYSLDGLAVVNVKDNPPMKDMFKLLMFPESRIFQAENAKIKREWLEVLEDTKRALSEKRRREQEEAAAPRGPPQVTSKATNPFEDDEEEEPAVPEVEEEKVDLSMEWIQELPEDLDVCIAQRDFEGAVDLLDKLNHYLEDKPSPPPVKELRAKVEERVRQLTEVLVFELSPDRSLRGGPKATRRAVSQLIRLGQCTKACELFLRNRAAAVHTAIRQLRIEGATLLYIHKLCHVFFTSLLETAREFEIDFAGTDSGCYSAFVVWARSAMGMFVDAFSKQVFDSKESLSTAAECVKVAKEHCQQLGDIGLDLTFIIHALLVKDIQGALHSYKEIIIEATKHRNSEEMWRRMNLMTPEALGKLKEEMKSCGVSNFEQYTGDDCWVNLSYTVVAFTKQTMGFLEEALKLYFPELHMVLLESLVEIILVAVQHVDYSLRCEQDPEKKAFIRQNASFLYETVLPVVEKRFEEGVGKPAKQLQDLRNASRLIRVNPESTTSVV

compound: COc1ccc(Cn2ccc3ccc(C(=O)NO)cc32)cc1; assay: dose-dependent thermal stabilisation call (2D-TPP, DLPTP, 10% FDR) (binary (1 = stabilised)); higher = stabilised by the compound; settings: system: HL-60 intact cells; concentration range 0.04-10 µM

Target | dose-dependent thermal stabilisation call
FNBP4 (UniProt Q8N3X1) | inactive: 0
FAM107B (UniProt Q9H098) | inactive: 0
FLVCR1 (UniProt Q9Y5Y0) | inactive: 0
GBF1 (UniProt Q92538) | inactive: 0
GALNT1 (UniProt Q10472) | inactive: 0
FXN (UniProt Q16595) | inactive: 0
FBXO4 (UniProt Q9UKT5) | inactive: 0
FIS1 (UniProt Q9Y3D6) | inactive: 0
FAM21B (UniProt Q641Q2) | inactive: 0
GCA (UniProt P28676) | inactive: 0
FKBP5 (UniProt Q13451) | inactive: 0
EXOSC5 (UniProt Q9NQT4) | inactive: 0
EXOC5 (UniProt O00471) | inactive: 0
ETFA (UniProt P13804) | inactive: 0
FAM122A (UniProt Q96E09) | inactive: 0
FAM114A2 (UniProt Q9NRY5) | inactive: 0
FLOT2 (UniProt Q14254) | inactive: 0
FGFR1OP2 (UniProt Q9NVK5) | inactive: 0
FAM136A (UniProt Q96C01) | inactive: 0

Target | dose-dependent thermal stabilisation call
FTSJ1 (UniProt Q9UET6) | active: 1
FAM98B (UniProt Q52LJ0) | inactive: 0
FKBP7 (UniProt Q9Y680) | inactive: 0
FIBP (UniProt O43427) | inactive: 0
FLJ40125 | inactive: 0
FAM120A (UniProt Q9NZB2) | inactive: 0
GALNT14 (UniProt Q96FL9) | inactive: 0
GAPVD1 (UniProt Q14C86) | inactive: 0
FBXL12 (UniProt Q9NXK8) | inactive: 0
FAM46C (UniProt Q5VWP2) | inactive: 0
FIP1L1 (UniProt Q6UN15) | inactive: 0
ETFDH (UniProt Q16134) | inactive: 0
FRYL (UniProt O94915) | inactive: 0
GAR1 (UniProt Q9NY12) | inactive: 0
EXOC2 (UniProt Q96KP1) | inactive: 0
FOXP1 (UniProt Q9H334) | inactive: 0
EXOC8 (UniProt Q8IYI6) | inactive: 0
FLJ21865 | inactive: 0
G3P1_HUMAN | inactive: 0

3 entries from above in a different format:
Target,dose-dependent thermal stabilisation call
FAM120A (UniProt Q9NZB2),inactive: 0
GAPVD1 (UniProt Q14C86),inactive: 0
GAR1 (UniProt Q9NY12),inactive: 0
